The text below walks through data of doi:10.1101/2023.11.07.565948.

By UniProt entry, the sequences of proteins in these tests, tags left out. Where a name states a change or a piece, a line headed by the entry shows the natural chain unless it says otherwise.
UniProt P16615, whole entry, stated change not applied: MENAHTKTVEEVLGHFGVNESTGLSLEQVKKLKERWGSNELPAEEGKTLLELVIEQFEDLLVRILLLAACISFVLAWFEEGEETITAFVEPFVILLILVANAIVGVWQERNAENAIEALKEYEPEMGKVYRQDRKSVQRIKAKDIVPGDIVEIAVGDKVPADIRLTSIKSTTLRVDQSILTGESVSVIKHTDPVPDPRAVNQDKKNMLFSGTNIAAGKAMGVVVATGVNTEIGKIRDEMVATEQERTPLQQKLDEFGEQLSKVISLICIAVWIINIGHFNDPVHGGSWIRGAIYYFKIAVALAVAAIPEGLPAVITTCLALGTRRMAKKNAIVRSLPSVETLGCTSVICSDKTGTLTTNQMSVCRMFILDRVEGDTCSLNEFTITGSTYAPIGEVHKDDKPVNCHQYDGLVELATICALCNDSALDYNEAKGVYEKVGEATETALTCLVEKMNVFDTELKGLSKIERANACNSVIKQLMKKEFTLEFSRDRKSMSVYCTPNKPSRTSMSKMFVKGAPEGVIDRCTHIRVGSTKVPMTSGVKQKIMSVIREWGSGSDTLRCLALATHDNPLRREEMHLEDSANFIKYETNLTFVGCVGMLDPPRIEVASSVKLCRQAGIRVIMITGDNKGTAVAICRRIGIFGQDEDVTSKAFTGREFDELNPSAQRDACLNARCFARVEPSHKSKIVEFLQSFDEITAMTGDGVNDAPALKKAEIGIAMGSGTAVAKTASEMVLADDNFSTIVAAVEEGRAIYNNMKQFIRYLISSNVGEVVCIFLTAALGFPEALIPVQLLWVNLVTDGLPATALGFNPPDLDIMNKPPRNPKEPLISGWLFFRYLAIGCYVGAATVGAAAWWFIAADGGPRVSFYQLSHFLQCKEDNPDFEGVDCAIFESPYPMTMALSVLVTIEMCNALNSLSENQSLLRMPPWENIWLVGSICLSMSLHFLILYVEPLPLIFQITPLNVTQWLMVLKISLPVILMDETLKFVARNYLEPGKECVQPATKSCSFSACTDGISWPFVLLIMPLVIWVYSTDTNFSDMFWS

The assay has as its target SERCA2 (sarco-ER Ca2+ ATPase 2) (human (endogenous in HEK293)) (UniProt P16615). As to the kind of experiment: co-IP.

Results are given in words; binding and its absence hold for the method and conditions named. In cells and extracts the contact can be indirect. Binding can be weak; no strength is given.

“Myc-tagged SELENOT^U49C (selenoprotein T, selenocysteine 49 changed to cysteine) (from UniProt P62341)”: the binding entry is reported as “binds”.
